Source: the supplement of paper PMC11438910
This is one part of the list. Most of these values are background signal.

Tests used:
Experiment in all cases: fluorescence intensity of antibody binding to polysaccharide-coupled beads; higher = stronger binding
[1] = biological target: pneumococcal polysaccharide Pn28A
[2] = biological target: pneumococcal polysaccharide Pn28F
[3] = biological target: pneumococcal polysaccharide Pn29
[4] = biological target: pneumococcal polysaccharide Pn3
[5] = biological target: pneumococcal polysaccharide Pn31
[6] = biological target: pneumococcal polysaccharide Pn32A
[7] = biological target: pneumococcal polysaccharide Pn32F
[8] = biological target: pneumococcal polysaccharide Pn33A
[9] = biological target: pneumococcal polysaccharide Pn33B
[10] = biological target: pneumococcal polysaccharide Pn33C
[11] = biological target: pneumococcal polysaccharide Pn33D
[12] = biological target: pneumococcal polysaccharide Pn33F
[13] = biological target: pneumococcal polysaccharide Pn34
[14] = biological target: pneumococcal polysaccharide Pn35A
[15] = biological target: pneumococcal polysaccharide Pn35B
[16] = biological target: pneumococcal polysaccharide Pn35C
[17] = biological target: pneumococcal polysaccharide Pn35F
[18] = biological target: pneumococcal polysaccharide Pn36
[19] = biological target: pneumococcal polysaccharide Pn37
[20] = biological target: pneumococcal polysaccharide Pn38
[21] = biological target: pneumococcal polysaccharide Pn39
[22] = biological target: pneumococcal polysaccharide Pn4
[23] = biological target: pneumococcal polysaccharide Pn40
[24] = biological target: pneumococcal polysaccharide Pn41A
[25] = antibody concentration 2337.65 ng/mL
[26] = antibody concentration 12500 ng/mL
[27] = antibody concentration 0.1 ng/mL
[28] = antibody concentration 0.534724 ng/mL
[29] = antibody concentration 2.8593 ng/mL
[30] = antibody concentration 15.2894 ng/mL
[31] = antibody concentration 81.7561 ng/mL
[32] = antibody concentration 437.17 ng/mL

B1: 4-173.3 (protein)
chain 1: QLQLQESGPGLVKPSETLSLTCAVSGGSINNNYWSWIRQPPGKGLEWIGRIFGSGGSTDYNPSLKSRVTISTDTSKTQFSLNLNSVTAADTAVYFCARGSYQVDYWGQGVLVTVSS
chain 2: QAALTQPPSMSGSPGQSVTISCTGTSSDIGGWNRVSWYQQYPGKAPKLMIYEVSKRPSGVSDRFSGSKSGNTASLTISGLQAEDEADYYCSSYVHINNALFGGGTRLTVL
[1]; [25]
  fluorescence intensity: 27.5 MFI
[1]; [26]
  fluorescence intensity: 34.5 MFI
[2]; [27]
  fluorescence intensity: 27 MFI
[2]; [28]
  fluorescence intensity: 28 MFI
[2]; [29]
  fluorescence intensity: 29 MFI
[2]; [30]
  fluorescence intensity: 28 MFI
[2]; [31]
  fluorescence intensity: 27.2 MFI
[2]; [32]
  fluorescence intensity: 28.2 MFI
[2]; [25]
  fluorescence intensity: 31.8 MFI
[2]; [26]
  fluorescence intensity: 49.5 MFI
[3]; [27]
  fluorescence intensity: 16.5 MFI
[3]; [28]
  fluorescence intensity: 14.5 MFI
[3]; [29]
  fluorescence intensity: 14.5 MFI
[3]; [30]
  fluorescence intensity: 15.5 MFI
[3]; [31]
  fluorescence intensity: 15.5 MFI
[3]; [32]
  fluorescence intensity: 18 MFI
[3]; [25]
  fluorescence intensity: 22 MFI
[3]; [26]
  fluorescence intensity: 47 MFI
[4]; [27]
  fluorescence intensity: 15 MFI
[4]; [28]
  fluorescence intensity: 20.2 MFI
[4]; [29]
  fluorescence intensity: 57.2 MFI
[4]; [30]
  fluorescence intensity: 204 MFI
[4]; [31]
  fluorescence intensity: 816 MFI
[4]; [32]
  fluorescence intensity: 3180 MFI
[4]; [25]
  fluorescence intensity: 11700 MFI
[4]; [26]
  fluorescence intensity: 8330 MFI
[5]; [27]
  fluorescence intensity: 12.5 MFI
[5]; [28]
  fluorescence intensity: 13.8 MFI
[5]; [29]
  fluorescence intensity: 14 MFI
[5]; [30]
  fluorescence intensity: 14 MFI
[5]; [31]
  fluorescence intensity: 14 MFI
[5]; [32]
  fluorescence intensity: 13.5 MFI
[5]; [25]
  fluorescence intensity: 17.5 MFI
[5]; [26]
  fluorescence intensity: 44.5 MFI
[6]; [27]
  fluorescence intensity: 15 MFI
[6]; [28]
  fluorescence intensity: 15.8 MFI
[6]; [29]
  fluorescence intensity: 17.2 MFI
[6]; [30]
  fluorescence intensity: 17.5 MFI
[6]; [31]
  fluorescence intensity: 16.5 MFI
[6]; [32]
  fluorescence intensity: 18.2 MFI
[6]; [25]
  fluorescence intensity: 19.5 MFI
[6]; [26]
  fluorescence intensity: 34.5 MFI
[7]; [27]
  fluorescence intensity: 24.2 MFI
[7]; [28]
  fluorescence intensity: 26 MFI
[7]; [29]
  fluorescence intensity: 27.5 MFI
[7]; [30]
  fluorescence intensity: 25.8 MFI
[7]; [31]
  fluorescence intensity: 25 MFI
[7]; [32]
  fluorescence intensity: 29 MFI
[7]; [25]
  fluorescence intensity: 32.5 MFI
[7]; [26]
  fluorescence intensity: 49.5 MFI
[8]; [27]
  fluorescence intensity: 17 MFI
[8]; [28]
  fluorescence intensity: 16.8 MFI
[8]; [29]
  fluorescence intensity: 18.5 MFI
[8]; [30]
  fluorescence intensity: 16.8 MFI
[8]; [31]
  fluorescence intensity: 16.5 MFI
[8]; [32]
  fluorescence intensity: 16.2 MFI
[8]; [25]
  fluorescence intensity: 27 MFI
[8]; [26]
  fluorescence intensity: 154 MFI
[9]; [27]
  fluorescence intensity: 16.5 MFI
[9]; [28]
  fluorescence intensity: 17.2 MFI
[9]; [29]
  fluorescence intensity: 17.2 MFI
[9]; [30]
  fluorescence intensity: 18 MFI
[9]; [31]
  fluorescence intensity: 17.8 MFI
[9]; [32]
  fluorescence intensity: 17.5 MFI
[9]; [25]
  fluorescence intensity: 17.2 MFI
[9]; [26]
  fluorescence intensity: 21.5 MFI
[10]; [27]
  fluorescence intensity: 20 MFI
[10]; [28]
  fluorescence intensity: 19.5 MFI
[10]; [29]
  fluorescence intensity: 17.5 MFI
[10]; [30]
  fluorescence intensity: 18.8 MFI
[10]; [31]
  fluorescence intensity: 19 MFI
[10]; [32]
  fluorescence intensity: 19 MFI
[10]; [25]
  fluorescence intensity: 20.2 MFI
[10]; [26]
  fluorescence intensity: 30 MFI
[11]; [27]
  fluorescence intensity: 17.8 MFI
[11]; [28]
  fluorescence intensity: 16.5 MFI
[11]; [29]
  fluorescence intensity: 16 MFI
[11]; [30]
  fluorescence intensity: 15.5 MFI
[11]; [31]
  fluorescence intensity: 14.8 MFI
[11]; [32]
  fluorescence intensity: 14.5 MFI
[11]; [25]
  fluorescence intensity: 14.5 MFI
[11]; [26]
  fluorescence intensity: 21.5 MFI
[12]; [27]
  fluorescence intensity: 11.5 MFI
[12]; [28]
  fluorescence intensity: 12.5 MFI
[12]; [29]
  fluorescence intensity: 12 MFI
[12]; [30]
  fluorescence intensity: 12.5 MFI
[12]; [31]
  fluorescence intensity: 13.5 MFI
[12]; [32]
  fluorescence intensity: 14.5 MFI
[12]; [25]
  fluorescence intensity: 20.5 MFI
[12]; [26]
  fluorescence intensity: 65.5 MFI
[13]; [27]
  fluorescence intensity: 13.5 MFI
[13]; [28]
  fluorescence intensity: 13.5 MFI
[13]; [29]
  fluorescence intensity: 14 MFI
[13]; [30]
  fluorescence intensity: 12.5 MFI
[13]; [31]
  fluorescence intensity: 13.5 MFI
[13]; [32]
  fluorescence intensity: 14.5 MFI
[13]; [25]
  fluorescence intensity: 13.5 MFI
[13]; [26]
  fluorescence intensity: 16 MFI
[14]; [27]
  fluorescence intensity: 17 MFI
[14]; [28]
  fluorescence intensity: 17 MFI
[14]; [29]
  fluorescence intensity: 16 MFI
[14]; [30]
  fluorescence intensity: 17 MFI
[14]; [31]
  fluorescence intensity: 15 MFI
[14]; [32]
  fluorescence intensity: 15.5 MFI
[14]; [25]
  fluorescence intensity: 19.5 MFI
[14]; [26]
  fluorescence intensity: 40.5 MFI
[15]; [27]
  fluorescence intensity: 17 MFI
[15]; [28]
  fluorescence intensity: 18 MFI
[15]; [29]
  fluorescence intensity: 18.2 MFI
[15]; [30]
  fluorescence intensity: 19.5 MFI
[15]; [31]
  fluorescence intensity: 15.5 MFI
[15]; [32]
  fluorescence intensity: 18 MFI
[15]; [25]
  fluorescence intensity: 18.5 MFI
[15]; [26]
  fluorescence intensity: 37 MFI
[16]; [27]
  fluorescence intensity: 21 MFI
[16]; [28]
  fluorescence intensity: 19 MFI
[16]; [29]
  fluorescence intensity: 18.8 MFI
[16]; [30]
  fluorescence intensity: 18.5 MFI
[16]; [31]
  fluorescence intensity: 18.5 MFI
[16]; [32]
  fluorescence intensity: 19.5 MFI
[16]; [25]
  fluorescence intensity: 20.5 MFI
[16]; [26]
  fluorescence intensity: 22 MFI
[17]; [27]
  fluorescence intensity: 26 MFI
[17]; [28]
  fluorescence intensity: 17 MFI
[17]; [29]
  fluorescence intensity: 17.2 MFI
[17]; [30]
  fluorescence intensity: 16.8 MFI
[17]; [31]
  fluorescence intensity: 20 MFI
[17]; [32]
  fluorescence intensity: 18.8 MFI
[17]; [25]
  fluorescence intensity: 19.2 MFI
[17]; [26]
  fluorescence intensity: 22.8 MFI
[18]; [27]
  fluorescence intensity: 14.5 MFI
[18]; [28]
  fluorescence intensity: 16 MFI
[18]; [29]
  fluorescence intensity: 16.5 MFI
[18]; [30]
  fluorescence intensity: 17 MFI
[18]; [31]
  fluorescence intensity: 15 MFI
[18]; [32]
  fluorescence intensity: 16 MFI
[18]; [25]
  fluorescence intensity: 17.5 MFI
[18]; [26]
  fluorescence intensity: 40 MFI
[19]; [27]
  fluorescence intensity: 24 MFI
[19]; [28]
  fluorescence intensity: 26 MFI
[19]; [29]
  fluorescence intensity: 23.8 MFI
[19]; [30]
  fluorescence intensity: 24.8 MFI
[19]; [31]
  fluorescence intensity: 26 MFI
[19]; [32]
  fluorescence intensity: 26 MFI
[19]; [25]
  fluorescence intensity: 37.5 MFI
[19]; [26]
  fluorescence intensity: 140 MFI
[20]; [27]
  fluorescence intensity: 23.8 MFI
[20]; [28]
  fluorescence intensity: 25 MFI
[20]; [29]
  fluorescence intensity: 24 MFI
[20]; [30]
  fluorescence intensity: 24.2 MFI
[20]; [31]
  fluorescence intensity: 23 MFI
[20]; [32]
  fluorescence intensity: 26 MFI
[20]; [25]
  fluorescence intensity: 26.5 MFI
[20]; [26]
  fluorescence intensity: 35.2 MFI
[21]; [27]
  fluorescence intensity: 16.5 MFI
[21]; [28]
  fluorescence intensity: 16.5 MFI
[21]; [29]
  fluorescence intensity: 17.5 MFI
[21]; [30]
  fluorescence intensity: 17.5 MFI
[21]; [31]
  fluorescence intensity: 18 MFI
[21]; [32]
  fluorescence intensity: 17.8 MFI
[21]; [25]
  fluorescence intensity: 19.5 MFI
[21]; [26]
  fluorescence intensity: 35 MFI
[22]; [27]
  fluorescence intensity: 18 MFI
[22]; [28]
  fluorescence intensity: 17.2 MFI
[22]; [29]
  fluorescence intensity: 16.5 MFI
[22]; [30]
  fluorescence intensity: 17.5 MFI
[22]; [31]
  fluorescence intensity: 17.5 MFI
[22]; [32]
  fluorescence intensity: 19.5 MFI
[22]; [25]
  fluorescence intensity: 23.5 MFI
[22]; [26]
  fluorescence intensity: 37 MFI
[23]; [27]
  fluorescence intensity: 15.2 MFI
[23]; [28]
  fluorescence intensity: 15 MFI
[23]; [29]
  fluorescence intensity: 15.8 MFI
[23]; [30]
  fluorescence intensity: 14.5 MFI
[23]; [31]
  fluorescence intensity: 15.2 MFI
[23]; [32]
  fluorescence intensity: 15.5 MFI
[23]; [25]
  fluorescence intensity: 21 MFI
[23]; [26]
  fluorescence intensity: 51 MFI
[24]; [27]
  fluorescence intensity: 21.5 MFI
[24]; [28]
  fluorescence intensity: 22 MFI
